Values quoted from earlier work as cited in patent US8173644B2, “3-substituted-[1,2,3]-benzotriazinone compound for enhancing glutamatergic synaptic responses” (Les Laboratoires Servier, priority 2007, dated 2012).
For at least one compound, name, drawing or mass did not settle the structure.

System: brain AMPA receptors
Conditions: works only at high concentrations; cited from earlier work

For `COc1ccc(C(=O)N2CCCC2=O)cc1` [aniracetam, N-anisoyl-2-pyrrolidinone], which “concentration at which the drug works” value is on record?
Its value is “approx. 1000 μM”.
